# ± gives the standard error. The uncertainty is large for many entries.
# B1: glmS ribozyme (parent)
# chain: AUAAAAGCGCCAGAACUACAGAAAUGUAGUUGACGAGGAGGAGGUUUAUCGAAUUUUCGGCGGAUGCCUCCAAA
# Variants of: B1
# Test: self-cleavage kobs at 640 uM GlcN6P; higher = faster cleavage; RNA array
# Details: with glucosamine-6-phosphate
# Outline: (§1)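 On sequenced MiSeq chips, barcoded ribozyme variants were made in situ by E. coli RNA polymerase and followed at 37 °C through a hybridised Cy3 probe. Glucosamine-6-phosphate was flowed in at 40 μM to 10 mM in HEPES/KCl/Mg(OAc)2 buffer. Exponential fits to normalised per-tile medians gave kobs, and weighted Michaelis–Menten fits gave kcat and KM.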
row,Variant,self-cleavage kobs at 640 uM GlcN6P [s⁻¹]
1,AUAAAAGCGCUAGAACUACAGAAAUGUAGUUGACGAGGAUGAGGUUUAUCGAAUUUUCGGCGGAUGCCUUCAAA [C11U G40U C70U],3.92e-05 ± 2.6e-05
2,AUAAAAGCGCUAGAACUACAGAAAUGUAGUUGACGAGGAGGAGGUUUAUCAAAUUUUCGGCGGAUGGCUCCAAA [C11U G51A C67G],7.99e-05 ± 4.5e-05
3,AUAAAAGCGCCGGAUCUACAGAAAUGUAGUUGACGAGGAGGAGGUUUAUCGAAUUUUCGGCGGAUGCCUCGAAA [A12G A15U C71G],2.84e-05 ± 1.5e-05
4,AUAAAAGCGCCGGAACUACAGAAAUGUAGUUGACGAGGAGGAGGUUUAUCGAAUUUUCGGCGGAUGCGUCCAAA [A12G C68G],2.44e-05 ± 2.2e-05
5,AUAAAAGCGCCGGAACUACAGAAAUGUAGAUGACGAGGAGGAGGUUUAUCGAAUUUUCGGCGGAUGCCUCCAAA [A12G U30A],1.81e-05 ± 1.4e-05
6,AUAAAAGCGCCUGAACUACAGAAAUGUAGUUGACGAGGAGGAGGUUUAUGGAAUUUUCGGCGGAUGCCUCCAAA [A12U C50G],0.00102 ± 0.00058
7,AUAAAAGCGCCUGAACUACAGAAAUGUAGUUGACGAGGAGGAGGUUUAUUGAAUUUUCGGCGCAUAGCUCCAAA [A12U C50U G63C G66A C67G],4.01e-05 ± 3.2e-05
8,AUAAAAGCGCCUGAACUACAGAAAUGUAGUUGACGAAGAGGAGGUUUAUCGAAUUUUCGGCGGAUGCCUGCAAA [A12U G37A C70G],1.32e-05 ± 1.1e-05
9,AUAAAAGCGCCUGAACUACAGAAAUGUAGUUGACGAGGAGGAGCUUUAUCGAUUUUUCGGCGGAUGCCUCCAAA [A12U G44C A53U],3.21e-05 ± 2.4e-05
10,AUAAAAGCGCCUGAACUACAGAAAUGUAGCUGACGAGGAGGAGGUUUAUCGAAUUUUCAGCAGAUGCUUCCAAA [A12U U30C G59A G62A C68U],2.33e-05 ± 1.8e-05
11,AUAAAAGCGCCAAAACUACAGAAAUGUAGUUGACGAGGAGGAGGUUUAUCGGAUUUUCGGCGGAUGCCUCCAAA [G13A A52G],2.36e-05 ± 1.7e-05
12,AUAAAAGCGCCAAAACUACAGAAAUGUACUUGACGAGGAGGAGGUUUAUCGAAUUUUCGGCGGAUGCCUCCAAA [G13A G29C],2.96e-05 ± 1.5e-05
13,AUAAAAGCGCCAAAACUACAGAAAUGUAGUUGACGAGGAGGAGGUUUAUCGAAUUUUCGGCGGAUACCUCCAAA [G13A G66A],5.2e-05 ± 3.6e-05
14,AUAAAAGCGCCACAUCUACAGAAAUGUAGUUGACGAGGAGGAGGUUUAUCUAAUUUUCGGCGGAUGUGUCCAAA [G13C A15U G51U C67U C68G],5.09e-05 ± 2.6e-05
15,AUAAAAGCGCCACAACUACAGAAAUGUAGUUGACGAGGAAGAGGUUUAUCGAAUUUUAGGCGGAUGCCUCCAAA [G13C G40A C58A],2.35e-05 ± 2.3e-05
16,AUAAAAGCGCCACAACUACAGAAAUGUAGUUGACGAGGAGGAGGUUUAUCGAAAUUUCGGCGGAUGCCUCCAAA [G13C U54A],3.19e-05 ± 1.7e-05
17,AUAAAAGCGCCACAACUACAGAAAUGUAGUUGACGAGGAGGAGGUUUAUCGAAUAUUCGGCGGAUGCCUACAAA [G13C U55A C70A],0.000501 ± 0.00032

# An excerpt of these results, tab-delimited:
row	Variant	self-cleavage kobs at 640 uM GlcN6P [s⁻¹]
3	AUAAAAGCGCCGGAUCUACAGAAAUGUAGUUGACGAGGAGGAGGUUUAUCGAAUUUUCGGCGGAUGCCUCGAAA [A12G A15U C71G]	2.84e-05 ± 1.5e-05
4	AUAAAAGCGCCGGAACUACAGAAAUGUAGUUGACGAGGAGGAGGUUUAUCGAAUUUUCGGCGGAUGCGUCCAAA [A12G C68G]	2.44e-05 ± 2.2e-05

# (listing goes on)

row,Variant,self-cleavage kobs at 640 uM GlcN6P [s⁻¹]
1,AUAAAAGCGCCAGCACUACAGAAAUGUAUUUGACGAGGAGGAGGUUUAUCGAAUUUUCGGAGGAUGCUUCCAAA [A14C G29U C61A C68U],2.73e-05 ± 2.2e-05
2,AUAAAAGCGCCAGCACUACAGAAAUGUAGGUGACGAGGAGGAGGUUUAUCGGAUUUUCGGCGGAUGCCUCCAAA [A14C U30G A52G],2.67e-05 ± 2.2e-05
3,AUAAAAGCGCCAGCACUACAGAAAUGUAGUUGACGAGGAGGAGGUUCAUCGAAUUUUCGGCGGAUGCCGCAAAA [A14C U47C U69G C71A],4.4e-05 ± 2.5e-05
4,AUAAAAGCGCCAGGACUACAGAAAUGUAGUUGACGAGGAGGAGGUUUAUGGAAUUUUCGGCGGAUGCCUCCAAA [A14G C50G],4.95e-05 ± 4.5e-05
5,AUAAAAGCGCCAGGACUACAGAAAUGUAGUUCACGAGGAGGAGGUUUAUGGAAUUUUCGGCGGAUGCCUCCAAA [A14G G32C C50G],4.43e-05 ± 3.2e-05
6,AUAAAAGCGCCAGUACUACAGAAAUGUAGUUGAGGAUGAGGAGGUUUAUCGAAUUUUCGGCAGAUGCAUCCAAA [A14U C34G G37U G62A C68A],2.35e-05 ± 2.3e-05
7,AUAAAAGCGCCAGUACUACAGAAAUGUAGUUGACGAGGAGGAGGUUUAUAGAAUUUUCGGCGGAUGCCUCAAAA [A14U C50A C71A],4.76e-05 ± 3.5e-05
8,AUAAAAGCGCCAGUACUACAGAAAUGUAGUUUACGAGGAGGAGGUUUAUCGAAUUUUCGGCGGAUGCCUCAAAA [A14U G32U C71A],3.75e-05 ± 2.5e-05
9,AUAAAAGCGCCAGUACUACAGAAAUGUAGUUGACGAGGAGGAGGUCGAUCGAAUUUUCGGCGGAUGCCUCCAAA [A14U U46C U47G],2.68e-05 ± 1.4e-05
10,AUAAAAGCGCCAGACCUACAGAAAUGUAGUUGACGGGGAGGAGGUUUAUGGAAUUUUCGGCGGAUGCCUCCAAA [A15C A36G C50G],3.02e-05 ± 2.9e-05
11,AUAAAAGCGCCAGACCUACAGAAAUGUAGUAUACGAGGAGGAGGUUUAUCGAAUUUUCGGCGGAUGCCGCCAAA [A15C U31A G32U U69G],7.55e-05 ± 6.2e-05
12,AUAAAAGCGCCAGACCUACAGAAAUGUAGUUGACGAGGAGGAGGUUUAUCGAAUUUUCGGCGGACGCCUCCAAA [A15C U65C],2.66e-05 ± 1.8e-05
13,AUAAAAGCGCCAGAGUUACAGAAAUGUAGUUGACGAGGAGGAGGUUUUUCGAAUUUUCGGCGGAUGCCUCCAAA [A15G C16U A48U],2.98e-05 ± 2.3e-05
14,AUAAAAGCGCCAGAGCUACAGAAAUGUAGUUGACGAGGAGGAGGUUUAUCGAAUUUUCGGCGGAUGGCUCGAAA [A15G C67G C71G],4.04e-05 ± 2.1e-05
15,AUAAAAGCGCCAGAGCUACAGAAAUGUAUUUGACGAGGGGGAGGUUUAUCGAAUUUUCGGCGGAUGUCUCCAAA [A15G G29U A39G C67U],8.54e-05 ± 4.4e-05
16,AUAAAAGCGCCAGAUCUACAGAAAUGUAGUUGACGAGGAGGAGGUUUAUCGAAUUUUUGGCGGAUGCCUCCAAA [A15U C58U],2.23e-05 ± 1.4e-05

# Variants of: B1
# Test: self-cleavage kobs at 10000 uM GlcN6P; higher = faster cleavage; RNA array
# Details: with glucosamine-6-phosphate
# Outline: as §1
row,Variant,self-cleavage kobs at 10000 uM GlcN6P [s⁻¹]
1,AUAAAAGCGCCGGAACUACAGAAAUGUAGUUGACGAGGAGGAGGUUUAUCGAAUUUUCGGCGGAUGCGUCCAAA [A12G C68G],2.46e-05 ± 1.3e-05

# Variants of: B1
# Test: self-cleavage kobs at 160 uM GlcN6P; higher = faster cleavage; RNA array
# Details: with glucosamine-6-phosphate
# Outline: as §1
row,Variant,self-cleavage kobs at 160 uM GlcN6P [s⁻¹]
1,AUAAAAGCGCCAGGACUACAGAAAUGUAGUUCACGAGGAGGAGGUUUAUGGAAUUUUCGGCGGAUGCCUCCAAA [A14G G32C C50G],3.35e-05 ± 2.3e-05

# Variants of: B1
# Test: self-cleavage kobs at 2500 uM GlcN6P; higher = faster cleavage; RNA array
# Details: with glucosamine-6-phosphate
# Outline: as §1
row,Variant,self-cleavage kobs at 2500 uM GlcN6P [s⁻¹]
1,AUAAAAGCGCCAGGACUACAGAAAUGUAGUUCACGAGGAGGAGGUUUAUGGAAUUUUCGGCGGAUGCCUCCAAA [A14G G32C C50G],3.11e-05 ± 2.5e-05
2,AUAAAAGCGCCAGACCUACAGAAAUGUAGUUGACGGGGAGGAGGUUUAUGGAAUUUUCGGCGGAUGCCUCCAAA [A15C A36G C50G],3.93e-05 ± 2.6e-05

# Reference: the supplement of paper PMC7125110
